From PubChem BioAssay AID2685 (National Center for Advancing Translational Sciences (NCATS), 2010) come the findings set out here.

Structures are written as SMILES. This is one part of the list. The main result of the screen is listed elsewhere. These columns were measured beside it and carry no call. Most of these compounds were active or inconclusive in the main read-out, so they are no random draw. The note in brackets gives the kind of curve behind each potency; many fits are weak.

The nature of the assay: qHTS Assay for Lipid Storage Modulators in Drosophila S3 Cells.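 For cell number change: cells counted by Cell Tracker Red CMTPX staining in the red channel.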 The following applies: BODIPY lipid droplet fluorescence, 18-24 h; for cell number change: measured here: cell count max response, cells fed with added oleic acid. The gist of the method: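 Drosophila S3 cells loaded with oleic acid (400 uM, as added) and compounds at several concentrations; lipid droplets imaged by 488-nm laser-scanning cytometry, 500–530 nm intensity and object ratio to cell channel. Percent activity normalized to 20 uM Triacsin C.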

The mark [1] stands for this setting: measured here: cell number channel AC50, cells fed with added oleic acid.
The mark [2] stands for this setting: measured here: lipid fluorescence (Fed channel) AC50, cells fed with added oleic acid.

The term AC50 denotes the concentration at which the activity in the assay is half-maximal. Low values mean activity at low concentration, high ones activity only at high concentration. In the case of `COc1ccc(C(=O)NC2CCCc3c2cnn3-c2cccc(C)c2C)o1` (centres undefined), the cell number change was -25.1%. Also, the half-maximal activity concentration (AC50) under setting [1] was 5.8 µM [falling, single point]. Besides, the half-maximal activity concentration (AC50) under setting [2] is 2.06 µM [falling, full curve].
Regarding `O=C(/C=C(\c1ccccc1)n1cncn1)c1ccccc1`, the cell number change turned out to be 11.2%. Further, under setting [2], the concentration at half-maximal activity (AC50) is 3.26 µM [rising, single point].
`COc1ccc(NC(=O)COC(=O)Cc2ccc(Br)cc2)cc1`: the cell number change is 36%. Moreover, the AC50 under setting [1] is 4.61 µM [rising, full curve, poor fit]. Also, the AC50 under setting [2] was 29.1 µM [rising, single point].
Turning to `O=C(CN1CCOCC1)N1CCN(c2nnc(-c3ccccc3)c3ccccc23)CC1`, the half-maximal activity concentration (AC50) under setting [2] was 6.51 µM [falling, single point].
Regarding `O=C(CCNC(=O)c1ccc(Br)cc1)Nc1nc2ccccc2[nH]1`, the cell number change was determined as 39%. Under setting [1], the AC50 was 2.59 µM [rising, full curve].
For the compound `Clc1ccc(Nc2nc(C3CC3)cs2)cc1`, the cell number change is -15.9%.
With `COCCCN(C(=O)c1ccco1)c1nc(-c2ccc(OC)cc2)cs1`, the cell number change is -33.2%. Besides, under setting [1], the AC50 was 16.4 µM [falling, partial curve, poor fit]. In addition, under setting [2], the AC50 was 20.6 µM [falling, single point].
As to `Cc1ccc2c(c1)C1CN(C)CCC1N2C(=O)c1ccccc1NS(=O)(=O)c1ccc(F)cc1` (centres undefined), the cell number change amounted to 1.41%. Also, the AC50 under setting [2] is 4.11 µM [rising, partial curve, poor fit].
Take `CCOc1nc(C)ccc1-c1noc(-c2ccccc2OC)n1`: the cell number change was -11.8%. Moreover, the AC50 under setting [2] was 6.51 µM [falling, single point].
Turning to `COc1ccc(-n2c(C)nc3c(cnn3-c3ccc(Cl)cc3)c2=O)cc1`, the cell number change is -17.9%.
Same read-out and setting: under `c1csc(-c2nc(N3CCOCC3)c3ccccc3n2)c1` stands -7.83%; under `CCOCC(=O)Nc1ccc(S(=O)(=O)NCCc2ccccc2)cc1`, -9.95%.
Turning to `O=C(COC(=O)/C=C/c1ccco1)Nc1ccc(F)cc1Cl`, the AC50 under setting [2] was 0.116 µM [falling, single point].
In the case of `CCN(CC)C(=O)CSc1nc2c(sc(=S)n2CC)c(=O)n1-c1ccccc1`, the cell number change is 1.55%.
Turning to `CCOC(=O)N1CCN(c2ccc(F)cc2[N+](=O)[O-])CC1`, the cell number change is 35.2%. Also, the AC50 under setting [1] is 2.91 µM [rising, partial curve]. For the same compound, the half-maximal activity concentration (AC50) under setting [2] was 5.17 µM [rising, partial curve, poor fit].
With `Cc1ccc(NC(=O)C2CC2C)cc1S(=O)(=O)N1CCOCC1` (centres undefined), the AC50 under setting [2] is 0.0259 µM [rising, partial curve, poor fit].
For `CCC1(C)Cc2ccccc2-c2[nH]c(=S)[nH]c(=O)c21` (centres undefined), the cell number change is -7.3%.
On the same count and under the same terms, under `CCc1ccc(/C=N/n2c(C3CCCCC3)n[nH]c2=S)cc1` stands -15.3%.
In the case of `COc1ccc(S(=O)(=O)N2CCCC(C(=O)NCCCn3ccnc3)C2)cc1OC` (centres undefined), the cell number change is -25.7%. For the same compound, under setting [2], the AC50 is 29.1 µM [falling, partial curve].
As to `COc1ccc(OC)c(S(N)(=O)=O)c1`, the cell number change is -216%. Further, the AC50 under setting [1] is 29.1 µM [falling, single point].
Consider `NS(=O)(=O)c1ccc(NC(=O)COc2ccc(S(=O)(=O)N3CCCC3)cc2)cc1`, for which the cell number change is 15.2%. Moreover, under setting [2], the AC50 was 14.6 µM [rising, partial curve].
Take `Cc1cc(Cl)ccc1OCC(=O)N1CCN(c2ncccn2)CC1`: the cell number change was 22.8%.
On to `COc1ccc(NC(=O)CC2C(=O)N(Cc3ccccc3)C(=S)N2CCN2CCOCC2)cc1` (centres undefined), for which the cell number change is -5.3%.
Take `Cc1cc(C(=O)COc2ccc(-c3nnco3)cc2)c(C)n1Cc1ccccc1`: the cell number change is -32.3%. For the same compound, the AC50 under setting [1] was 25.9 µM [falling, partial curve].
As for `Cc1ccc(NC2CCCN(C(=O)c3cc(C(C)C)[nH]n3)C2)cc1C` (centres undefined), the cell number change was found to be 14.5%. In addition, under setting [1], the AC50 is 0.00461 µM [rising, full curve, poor fit].
Turning to `O=C(Cn1ccc(C(F)(F)F)n1)N/N=C/c1cccs1`, the cell number change was -6.5%.
Turning to `Cc1ccc(C(=O)OCC(=O)NC2CCCCC2)s1`, the cell number change was -27%. Moreover, the concentration at half-maximal activity (AC50) under setting [1] was 0.146 µM [falling, full curve, poor fit]. Further, the AC50 under setting [2] was 0.92 µM [falling, partial curve].
On to `CC1(c2cccc(Br)c2)NC(=O)N(CC(=O)Nc2cccnc2Cl)C1=O` (centres undefined), for which the cell number change was 2.02%.
On to `Cc1c(N(C)S(=O)(=O)c2cccc(C(=O)NC(C)C)c2)c(=O)n(-c2ccccc2)n1C`, for which the cell number change was 5.41%. The AC50 under setting [2] was 29.1 µM [falling, single point].
With `Cc1cc(C)n2nc(C(=O)OCC(=O)Nc3ccc4c(c3)OCCO4)nc2n1`, the cell number change is -30.3%. The AC50 under setting [1] is 32.6 µM [falling, single point]. The AC50 under setting [2] was 0.058 µM [falling, full curve, poor fit].
For `COc1ccc(C2CC(=O)Nc3cc(C)c(C)cc32)c(OC)c1OC` (centres undefined), the cell number change amounted to 84.2%. For the same compound, under setting [1], the AC50 was 20.6 µM [rising, partial curve, poor fit]. Further, the AC50 under setting [2] is 1.84 µM [rising, full curve].
For `CCOCc1nnc(NC(=O)c2cc(OC)cc(OC)c2)s1`, the cell number change was determined as 21%. Besides, the AC50 under setting [1] is 2.91 µM [rising, single point].
On to `COc1ccc(Cl)c2sc(N3CCN(C(=O)c4ccco4)CC3)nc12`, for which the cell number change was -14.7%. The half-maximal activity concentration (AC50) under setting [2] was 23.1 µM [falling, single point].
On to `N#Cc1ccc(COC(=O)c2cc(=O)c3ccccc3o2)cc1`, for which the cell number change is -2.31%.
As for `Cc1ccc(S(=O)(=O)N2CCOCC2)cc1NC(=O)CNC1CCCC1`, the cell number change came out at 9.38%. The AC50 under setting [1] is 0.58 µM [falling, full curve]. Moreover, under setting [2], the AC50 is 0.58 µM [falling, full curve].
On to `COc1ccc(C(=O)NCC(=O)OCC(=O)c2ccc3c(c2)NC(=O)CO3)cc1OC`, for which the cell number change was -8.3%. Also, the AC50 under setting [1] is 0.366 µM [rising, partial curve, poor fit].
`COc1cc([N+](=O)[O-])ccc1NC(=O)CCCOc1ccc(C)cc1`: the cell number change is 35.6%.
For `Cc1c(Cl)c([N+](=O)[O-])nn1Cc1ccc(C(=O)N/N=C\c2cc(Cl)ccc2O)o1`, the cell number change is -32.5%. In addition, the concentration at half-maximal activity (AC50) under setting [1] is 0.461 µM [falling, full curve, poor fit]. In addition, the AC50 under setting [2] was 9.2 µM [falling, single point].
On to `CC(=O)c1ccc(NC(=O)COC(=O)C2CCN(S(=O)(=O)c3cccs3)CC2)cc1`, for which the cell number change is -1.2%.
Take `CCOC(=O)c1c(NC(=O)CSc2nc3cccnc3n2C)sc(C(C)=O)c1C`: the cell number change was -4.99%. Also, the half-maximal activity concentration (AC50) under setting [1] is 5.8 µM [falling, single point]. For the same compound, under setting [2], the AC50 was 6.51 µM [falling, single point].
As to `CC(C)(O)C#Cc1ccc(C(=O)N2CCC(C(N)=O)(N3CCCCC3)CC2)cc1`, the cell number change was found to be 44.7%. Also, under setting [1], the half-maximal activity concentration (AC50) was 0.82 µM [rising, full curve, poor fit].
With `Cc1nn(-c2ccccc2)c(N2CCCC2)c1/C=N/Nc1ccc(S(=O)(=O)Nc2ccccc2)cc1[N+](=O)[O-]`, the cell number change was -97.4%. The half-maximal activity concentration (AC50) under setting [1] is 1.3 µM [falling, full curve]. In addition, the AC50 under setting [2] was 0.13 µM [falling, full curve, poor fit].
`COc1cc2cc(CN(CCO)S(=O)(=O)c3ccccc3Cl)c(=O)[nH]c2cc1OC`: the cell number change amounted to 4.34%.
For the compound `CSc1ccc(CNC(C)(C)CO)cc1`, the cell number change is 6.37%. The AC50 under setting [2] is 23.1 µM [rising, single point].
For `CCOC(=O)N1CCN(C(=O)/C(=C/c2cccs2)NC(=O)c2ccc(OC)c(OC)c2)CC1`, the cell number change is -2.56%. Under setting [1], the AC50 is 2.91 µM [rising, partial curve].
With `O=C(NCCCN1CCOCC1)c1cnn2c(-c3ccccc3)cc(-c3ccccc3)nc12`, the cell number change amounted to 0.424%.
Same read-out and setting: under `CN(C1CCCCC1)S(=O)(=O)c1ccc(C(=O)O)cc1` stands 16.2%.
The same measure, in the same setting: as for `CCOC(=O)c1c(NC(=O)C2c3ccccc3Oc3ccccc32)sc(C(=O)N(CC)CC)c1C`, the figure is -20%; as for `COc1ccc([C@@H]2[C@@H]3C(=O)N(C(C)(C)C)C(=O)[C@@H]3[C@]3(C)C(=O)N(c4ccccc4)C(=O)N23)cc1`, 21.7%; as for `CCN(CC)S(=O)(=O)c1ccc(NC(=O)c2cccnc2Cl)c(NC(=O)c2cccnc2Cl)c1`, 54.4%.
In the case of `CN1C(=O)/C(=C\C=C2/CCCN2C)N(C)C1=S`, the cell number change turned out to be 7.14%. Further, the AC50 under setting [2] is 6.51 µM [rising, single point].
Regarding `CC1CCN(C(=O)C2CCC(CNS(=O)(=O)c3cccc4cccnc34)CC2)CC1` (centres undefined), the cell number change was 17.6%. In addition, under setting [1], the concentration at half-maximal activity (AC50) was 0.146 µM [rising, full curve, poor fit].
In the case of `COc1cc(NC(=O)c2c(Cl)cnn2C)c(OC)cc1Cl`, the cell number change amounted to 2.89%. Also, the AC50 under setting [2] was 0.092 µM [falling, full curve, poor fit].
In the case of `O=c1c(/C=N/Nc2ccccc2)c(Sc2nnnn2-c2ccccc2)nc2ccccn12`, the cell number change is 20.8%. Under setting [1], the AC50 is 0.259 µM [rising, full curve, poor fit].
On to `CN(C)c1ccc(C2CC(=O)OC3=C2C(=O)CC(C)(C)C3)cc1` (centres undefined), for which the cell number change is -19.9%. Moreover, the AC50 under setting [2] is 1.46 µM [falling, full curve].
Turning to `CCn1c(COc2ccccc2)nnc1SCC(=O)CC(=O)Nc1ccccc1OC`, the cell number change was 8.18%. Further, under setting [1], the concentration at half-maximal activity (AC50) is 6.51 µM [rising, single point].
For `O=C1CCC/C(=N/NC(=O)c2ccc(CN3c4cccc5cccc(c45)S3(=O)=O)cc2)C1`, the cell number change was determined as 11.8%.
Still for that read-out and setting: under `CC(C)c1ccc(/C=C/C(=O)n2nnc3ccccc32)cc1` stands 0.702%.
As for `CCCCn1c(NCCN(C)C)nc2c1c(=O)[nH]c(=O)n2C`, the cell number change was -27.8%. Further, under setting [2], the AC50 was 5.17 µM [falling, partial curve].
Consider `CCn1ccc(C(=O)Nc2ccc3c(c2)CCC3)n1`, for which the cell number change is -33.4%. For the same compound, the half-maximal activity concentration (AC50) under setting [1] was 7.31 µM [falling, partial curve, poor fit]. For the same compound, the AC50 under setting [2] was 29.1 µM [falling, single point].
For the compound `Cc1ccc(NC(=O)CCN2CCN(C/C=C/c3ccccc3)CC2)cc1C`, the cell number change was -28.5%. Also, the AC50 under setting [2] was 16.4 µM [falling, partial curve].
For the compound `Cc1cccc(-n2ncc3c(Nc4ccc(F)cc4)ncnc32)c1`, the cell number change is -32.4%. The half-maximal activity concentration (AC50) under setting [1] was 16.4 µM [falling, single point]. Moreover, under setting [2], the half-maximal activity concentration (AC50) was 29.1 µM [falling, single point].
On to `CC1(C)CC(=O)C2=C(C1)NC(Nc1nc3ccccc3o1)=NC21CCCCC1`, for which the AC50 is 1.64 µM [rising, partial curve] under setting [1] and 1.46 µM [rising, partial curve, poor fit] under setting [2].
